# Data from the supplement of paper PMC12067093, “Discovery and optimisation of a covalent ligand for TRIM25 and its application to targeted protein ubiquitination” (Chemical Science, 2025).
# By UniProt entry, the sequences of proteins in these tests, tags left out. Where a name states a change or a piece, a line headed by the entry shows the natural chain unless it says otherwise.
# UniProt Q9Y490: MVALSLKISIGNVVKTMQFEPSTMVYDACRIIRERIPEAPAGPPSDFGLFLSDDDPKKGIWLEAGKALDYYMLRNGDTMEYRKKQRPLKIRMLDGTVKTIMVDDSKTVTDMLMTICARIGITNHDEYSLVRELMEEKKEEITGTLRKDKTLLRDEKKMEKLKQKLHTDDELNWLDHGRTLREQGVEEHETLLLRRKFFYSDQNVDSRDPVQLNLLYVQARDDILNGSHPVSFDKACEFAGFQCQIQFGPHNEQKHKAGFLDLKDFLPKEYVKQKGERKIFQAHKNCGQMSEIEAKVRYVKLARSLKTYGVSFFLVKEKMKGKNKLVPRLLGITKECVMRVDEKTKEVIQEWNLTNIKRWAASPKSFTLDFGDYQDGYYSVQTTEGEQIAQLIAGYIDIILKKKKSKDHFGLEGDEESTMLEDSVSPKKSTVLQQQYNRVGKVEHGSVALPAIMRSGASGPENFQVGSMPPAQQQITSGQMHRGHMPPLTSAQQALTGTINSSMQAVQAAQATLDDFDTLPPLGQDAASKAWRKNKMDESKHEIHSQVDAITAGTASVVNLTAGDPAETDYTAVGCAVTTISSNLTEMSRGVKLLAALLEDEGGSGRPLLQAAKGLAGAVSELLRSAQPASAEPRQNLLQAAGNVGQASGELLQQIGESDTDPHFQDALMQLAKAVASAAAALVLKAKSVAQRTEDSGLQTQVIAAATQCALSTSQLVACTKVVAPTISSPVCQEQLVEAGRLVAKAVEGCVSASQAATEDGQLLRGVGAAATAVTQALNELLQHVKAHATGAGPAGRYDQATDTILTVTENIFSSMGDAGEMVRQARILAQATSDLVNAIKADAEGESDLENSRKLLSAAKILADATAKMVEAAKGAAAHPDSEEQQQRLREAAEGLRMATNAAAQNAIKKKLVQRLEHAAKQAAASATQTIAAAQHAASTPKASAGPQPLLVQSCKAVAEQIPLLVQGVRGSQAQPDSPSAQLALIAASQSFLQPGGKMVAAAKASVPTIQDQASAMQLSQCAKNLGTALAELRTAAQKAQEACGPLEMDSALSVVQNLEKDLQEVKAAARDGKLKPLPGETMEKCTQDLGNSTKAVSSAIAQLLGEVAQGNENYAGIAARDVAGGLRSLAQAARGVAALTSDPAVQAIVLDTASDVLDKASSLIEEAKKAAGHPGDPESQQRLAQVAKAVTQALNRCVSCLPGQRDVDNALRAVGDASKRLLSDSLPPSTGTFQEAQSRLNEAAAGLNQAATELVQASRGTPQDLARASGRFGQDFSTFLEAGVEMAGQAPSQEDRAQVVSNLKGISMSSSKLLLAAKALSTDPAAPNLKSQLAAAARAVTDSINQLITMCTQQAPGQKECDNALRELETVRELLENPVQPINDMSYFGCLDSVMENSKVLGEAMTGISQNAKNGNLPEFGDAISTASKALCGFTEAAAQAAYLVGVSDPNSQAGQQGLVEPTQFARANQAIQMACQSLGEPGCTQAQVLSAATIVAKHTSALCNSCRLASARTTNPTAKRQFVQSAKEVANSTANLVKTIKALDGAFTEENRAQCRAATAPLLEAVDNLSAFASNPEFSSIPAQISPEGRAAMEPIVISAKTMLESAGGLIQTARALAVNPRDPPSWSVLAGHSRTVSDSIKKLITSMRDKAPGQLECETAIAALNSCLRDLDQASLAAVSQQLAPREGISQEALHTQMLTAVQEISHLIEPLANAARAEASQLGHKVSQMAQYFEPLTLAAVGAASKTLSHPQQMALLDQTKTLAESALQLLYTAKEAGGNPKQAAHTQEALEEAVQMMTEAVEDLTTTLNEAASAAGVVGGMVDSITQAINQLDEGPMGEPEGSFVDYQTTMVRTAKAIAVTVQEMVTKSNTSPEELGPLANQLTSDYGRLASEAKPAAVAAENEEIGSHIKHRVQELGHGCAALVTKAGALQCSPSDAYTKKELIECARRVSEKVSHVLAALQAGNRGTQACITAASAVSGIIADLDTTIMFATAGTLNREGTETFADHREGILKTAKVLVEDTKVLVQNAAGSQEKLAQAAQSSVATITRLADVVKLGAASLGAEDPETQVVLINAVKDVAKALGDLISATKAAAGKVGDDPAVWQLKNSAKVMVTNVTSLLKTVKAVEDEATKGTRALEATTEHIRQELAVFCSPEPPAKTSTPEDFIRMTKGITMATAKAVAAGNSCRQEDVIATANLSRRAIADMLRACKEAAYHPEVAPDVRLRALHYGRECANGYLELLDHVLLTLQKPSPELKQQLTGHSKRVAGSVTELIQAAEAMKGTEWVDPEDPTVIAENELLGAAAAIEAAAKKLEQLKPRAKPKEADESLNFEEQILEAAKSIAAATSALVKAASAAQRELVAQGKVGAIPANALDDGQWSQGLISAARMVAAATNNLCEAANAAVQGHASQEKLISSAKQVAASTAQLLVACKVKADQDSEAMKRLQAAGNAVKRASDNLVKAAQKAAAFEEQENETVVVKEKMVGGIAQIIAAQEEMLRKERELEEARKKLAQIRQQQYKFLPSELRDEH
# UniProt Q15785: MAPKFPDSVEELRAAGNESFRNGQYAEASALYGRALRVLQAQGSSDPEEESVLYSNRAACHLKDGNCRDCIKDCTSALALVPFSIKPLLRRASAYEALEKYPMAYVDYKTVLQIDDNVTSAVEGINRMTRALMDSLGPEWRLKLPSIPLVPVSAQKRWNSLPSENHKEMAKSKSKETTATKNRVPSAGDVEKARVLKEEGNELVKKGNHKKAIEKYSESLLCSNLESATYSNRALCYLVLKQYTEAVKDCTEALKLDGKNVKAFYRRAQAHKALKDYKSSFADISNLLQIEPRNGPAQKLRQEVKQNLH
# UniProt P57088: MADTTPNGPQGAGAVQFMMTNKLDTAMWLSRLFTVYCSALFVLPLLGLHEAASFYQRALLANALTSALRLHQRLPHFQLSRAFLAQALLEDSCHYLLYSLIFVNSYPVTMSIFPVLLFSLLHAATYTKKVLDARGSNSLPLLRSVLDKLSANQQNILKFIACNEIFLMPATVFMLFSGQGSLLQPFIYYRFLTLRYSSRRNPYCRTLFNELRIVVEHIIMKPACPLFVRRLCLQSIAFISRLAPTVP
# UniProt Q8NFZ5: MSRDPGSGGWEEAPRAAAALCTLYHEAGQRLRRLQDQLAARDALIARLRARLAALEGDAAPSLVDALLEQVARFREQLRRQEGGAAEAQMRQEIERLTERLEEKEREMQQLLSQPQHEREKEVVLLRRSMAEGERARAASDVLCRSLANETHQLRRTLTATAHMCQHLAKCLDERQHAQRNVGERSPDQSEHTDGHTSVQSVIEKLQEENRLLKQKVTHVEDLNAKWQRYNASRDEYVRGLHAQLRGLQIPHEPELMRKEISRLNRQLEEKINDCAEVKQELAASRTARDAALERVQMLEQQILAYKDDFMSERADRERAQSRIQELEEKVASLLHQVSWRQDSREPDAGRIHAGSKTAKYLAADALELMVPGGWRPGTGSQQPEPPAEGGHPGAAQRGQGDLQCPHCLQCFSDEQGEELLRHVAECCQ
# UniProt Q14106: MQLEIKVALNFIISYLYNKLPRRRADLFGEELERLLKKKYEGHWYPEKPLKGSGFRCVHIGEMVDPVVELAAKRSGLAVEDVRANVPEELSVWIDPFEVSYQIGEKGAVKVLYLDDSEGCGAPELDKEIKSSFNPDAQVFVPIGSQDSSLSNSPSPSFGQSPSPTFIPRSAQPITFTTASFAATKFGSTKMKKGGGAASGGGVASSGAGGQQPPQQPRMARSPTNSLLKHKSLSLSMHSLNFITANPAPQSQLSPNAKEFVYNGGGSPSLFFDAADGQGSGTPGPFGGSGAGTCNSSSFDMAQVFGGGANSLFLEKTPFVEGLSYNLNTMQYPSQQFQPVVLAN
# UniProt Q02880: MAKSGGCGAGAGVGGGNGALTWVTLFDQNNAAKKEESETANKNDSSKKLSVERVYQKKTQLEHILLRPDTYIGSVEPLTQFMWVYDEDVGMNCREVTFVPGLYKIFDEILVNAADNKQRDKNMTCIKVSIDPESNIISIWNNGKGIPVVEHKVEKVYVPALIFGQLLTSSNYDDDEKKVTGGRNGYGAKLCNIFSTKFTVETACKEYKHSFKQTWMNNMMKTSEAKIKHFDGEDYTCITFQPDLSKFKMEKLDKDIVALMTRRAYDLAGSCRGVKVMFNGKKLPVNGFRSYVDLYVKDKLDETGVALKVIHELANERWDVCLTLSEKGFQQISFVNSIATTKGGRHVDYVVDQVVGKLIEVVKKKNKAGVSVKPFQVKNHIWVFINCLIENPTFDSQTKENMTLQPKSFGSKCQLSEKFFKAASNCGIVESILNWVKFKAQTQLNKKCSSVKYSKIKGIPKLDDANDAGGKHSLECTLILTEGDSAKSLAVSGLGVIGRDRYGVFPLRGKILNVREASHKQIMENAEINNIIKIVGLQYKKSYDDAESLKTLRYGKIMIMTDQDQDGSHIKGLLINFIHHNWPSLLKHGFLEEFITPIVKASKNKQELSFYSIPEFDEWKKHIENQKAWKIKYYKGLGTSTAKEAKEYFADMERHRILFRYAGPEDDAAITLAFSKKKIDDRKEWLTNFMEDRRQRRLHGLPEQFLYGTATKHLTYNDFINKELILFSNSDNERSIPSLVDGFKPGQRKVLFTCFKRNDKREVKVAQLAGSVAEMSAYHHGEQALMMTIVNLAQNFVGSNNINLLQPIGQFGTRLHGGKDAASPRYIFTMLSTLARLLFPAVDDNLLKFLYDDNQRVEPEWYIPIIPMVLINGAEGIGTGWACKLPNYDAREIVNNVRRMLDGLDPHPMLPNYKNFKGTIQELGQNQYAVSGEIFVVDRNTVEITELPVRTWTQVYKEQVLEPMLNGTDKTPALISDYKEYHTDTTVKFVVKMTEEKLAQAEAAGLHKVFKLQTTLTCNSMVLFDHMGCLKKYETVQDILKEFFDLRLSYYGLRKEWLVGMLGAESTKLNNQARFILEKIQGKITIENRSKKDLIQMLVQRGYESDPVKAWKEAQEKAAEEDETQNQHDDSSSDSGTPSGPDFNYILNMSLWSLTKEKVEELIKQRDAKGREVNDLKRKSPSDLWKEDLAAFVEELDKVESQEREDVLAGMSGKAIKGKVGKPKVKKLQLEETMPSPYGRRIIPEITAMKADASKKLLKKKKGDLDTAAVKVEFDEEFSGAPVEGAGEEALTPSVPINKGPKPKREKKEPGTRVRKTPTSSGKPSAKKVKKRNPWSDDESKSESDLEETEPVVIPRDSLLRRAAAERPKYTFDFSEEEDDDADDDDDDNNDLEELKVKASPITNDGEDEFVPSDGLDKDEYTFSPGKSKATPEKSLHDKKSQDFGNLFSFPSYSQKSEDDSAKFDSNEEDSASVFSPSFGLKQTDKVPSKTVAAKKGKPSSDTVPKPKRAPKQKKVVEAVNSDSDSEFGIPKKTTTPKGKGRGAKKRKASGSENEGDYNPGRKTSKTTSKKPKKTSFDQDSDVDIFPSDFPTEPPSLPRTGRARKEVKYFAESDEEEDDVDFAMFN
# UniProt Q9Y3Q3: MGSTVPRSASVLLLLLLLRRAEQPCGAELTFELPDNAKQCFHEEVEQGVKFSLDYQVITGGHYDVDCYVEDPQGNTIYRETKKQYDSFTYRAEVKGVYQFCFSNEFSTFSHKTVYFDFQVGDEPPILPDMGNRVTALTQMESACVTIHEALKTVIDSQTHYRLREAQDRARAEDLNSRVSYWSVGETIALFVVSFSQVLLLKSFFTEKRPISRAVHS
# UniProt O60603, whole entry, looked up: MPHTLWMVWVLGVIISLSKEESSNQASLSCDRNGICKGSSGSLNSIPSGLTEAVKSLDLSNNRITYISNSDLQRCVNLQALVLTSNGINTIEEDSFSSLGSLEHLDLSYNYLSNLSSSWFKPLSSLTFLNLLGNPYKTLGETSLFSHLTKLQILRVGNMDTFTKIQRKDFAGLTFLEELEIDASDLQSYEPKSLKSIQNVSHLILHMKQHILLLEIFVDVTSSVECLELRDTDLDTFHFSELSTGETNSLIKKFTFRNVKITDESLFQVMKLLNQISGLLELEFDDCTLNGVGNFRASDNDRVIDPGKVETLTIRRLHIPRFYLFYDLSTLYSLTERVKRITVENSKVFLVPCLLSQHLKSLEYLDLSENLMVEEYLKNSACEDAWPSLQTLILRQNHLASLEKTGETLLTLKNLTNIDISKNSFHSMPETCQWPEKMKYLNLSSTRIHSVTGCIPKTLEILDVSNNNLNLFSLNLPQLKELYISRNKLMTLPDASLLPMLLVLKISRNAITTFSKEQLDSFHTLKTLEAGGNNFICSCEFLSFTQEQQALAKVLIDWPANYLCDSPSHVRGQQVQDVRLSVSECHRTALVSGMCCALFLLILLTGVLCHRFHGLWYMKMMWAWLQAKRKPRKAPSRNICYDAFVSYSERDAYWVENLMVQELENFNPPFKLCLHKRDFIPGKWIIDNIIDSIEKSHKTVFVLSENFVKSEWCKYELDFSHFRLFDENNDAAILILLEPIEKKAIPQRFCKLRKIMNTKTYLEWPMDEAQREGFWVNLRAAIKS
# Some of the results follow.
# Compound: CC1Cc2ccccc2N1C(=O)C1CCCN(C1)C(=O)CCl (mixture of isomers) [TRIM25 ligand 11 (diastereomer mixture)]
# Assay: probe-labelled cysteine peptide fold change vs DMSO (competition) (log2 fold change); higher = less target engagement (more negative = stronger competition)
# Conditions: 50 µM; THP-1; incubation time: 4 h
# 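Further: competitive chemoproteomic profiling in live THP-1 cells with an iodoacetamide desthiobiotin (IA-DTB) probe, comparing probe-labelled peptide intensities in compound-treated cells against DMSO-treated controls.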
row,Target,probe-labelled cysteine peptide fold change
1,TLN1_Q9Y490_1671_APGQLECETAIAALNSCLR (UniProt Q9Y490),0.0981
2,TOR2A_Q5JU69_43_CTLGAFCECDFRPDLPGLECDLAQHLAGQHLAK (UniProt Q5JU69),0.451
3,TLN1_Q9Y490_1661+1671_APGQLECETAIAALNSCLR (UniProt Q9Y490),-0.266
4,TOMM34_Q15785_236_ALCYLVLK (UniProt Q15785),0.159
5,TMEM33_P57088_232_LCLQSIAFISR (UniProt P57088),0.373
6,TNIP2_Q8NFZ5_428_HVAECCQ (UniProt Q8NFZ5),0.0514
7,TONSL_Q96HA7_30_EEAALCHQLGELLAGHGR (UniProt Q96HA7),0.0679
8,TLN1_Q9Y490_2161_ALEATTEHIRQELAVFCSPEPPAK (UniProt Q9Y490),-0.00307
9,TOB2_Q14106_120_VLYLDDSEGCGAPELDK (UniProt Q14106),-0.072
10,TOP2A_P11388_733_VLFTCFK (UniProt P11388),0.261
11,TLN2_Q9Y4G6_1204_AVSHSLNNCVNCLPGQK (UniProt Q9Y4G6),0.0187
12,TOPBP1_Q92547_430_WLLECFSK (UniProt Q92547),-0.183
13,TOP2B_Q02880_237_HFDGEDYTCITFQPDLSK (UniProt Q02880),-0.00406
14,TMED3_Q9Y3Q3_40_QCFHEEVEQGVK (UniProt Q9Y3Q3),0.00481
15,TLR2_O60603_353_VFLVPCLLSQHLK (UniProt O60603),-0.132
16,TOP2B_Q02880_204_FTVETACK (UniProt Q02880),0.0527
